A short description of this series: Liposomal loading efficiency. Format: physicochemical. The settings on record: pH gradient reversal, drug/lipid ratio 0.09.

“And” between values parts separate entries of the source, which are not always exact repeats. Identical values can stand only once.

As to `CN[C@@H]1C[C@H]2O[C@@](C)([C@@H]1OC)n1c3ccccc3c3c4c(c5c6ccccc6n2c5c31)C(=O)N[C@H]4O` [UCN-01, 7-hydroxystaurosporine], the liposomal loading efficiency is 65% and > 50%.
